Test results published in the RNAGym collection of RNA variant scans (doi:10.1126/science.aae0568).
Variants at the background level are over-represented here.

B1: tRNA (parent)
chain: GUUCCGUUGGCGUAAUGGUAACGCGUCUCCCUCCUAAGGAGAAGACUGCGGGUUCGAGUCCCGUACGGAACG

Variants of: B1
Assay: yeast fitness relative to wild type (ratio to wild type); higher = fitter; tRNA-Arg(CCU), competitive growth, 37 C, YPD
Outline: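 Amplicons of the tRNA-Arg(CCU) gene were sequenced, 100-nucleotide paired-end, from the start population and from each end population of a pooled yeast competition. The competition, in six parallel replicates, lasted 24 hours in YPD at 37°C. Fitness relative to wild type was calculated from changes in genotype frequencies. Genotypes had to have ≥ 100 starting reads, and estimates < 0.5 were set to 0.5.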

| Variant | yeast fitness |
| --- | --- |
| U2G U13G A36G C49U G56A A70G | ≤ 0.5 |
| U2G U13G U16C C49A | ≤ 0.5 |
| U2G U13G U16C G63A | ≤ 0.5 |
| U2G U35G A45G C49G U59C C60U A69C | 0.618 |
| U2G U54G | ≤ 0.5 |
| U3A A14G C46G G50C | ≤ 0.5 |
| U3A A14G G23C G41A C55U U59A A70U | ≤ 0.5 |
| U3A A15G U19A U32C G41A G50A | ≤ 0.5 |
| U3A A20C U32A C62U G63A A69C | ≤ 0.5 |
| U3A A20G A37C C55G C61U | ≤ 0.5 |
| U3A A21C C33U U35A G51C G68C A70U | 0.564 |
| U3A A36U A43G G52C | ≤ 0.5 |
| U3A A36U A57G G63C | 0.681 |
| U3A A36U C60A | ≤ 0.5 |
| U3A A42C G63A | ≤ 0.5 |
| U3A C4A U16A C30G G63A U64C G67C | ≤ 0.5 |
| U3A C4U C5U G48C C49A G67C A70U | 0.663 |
| U3A C4U C31A C66G G68C | ≤ 0.5 |
| U3A C4U C33G C34G G44A G48C C55G A69U | ≤ 0.5 |
| U3A C5A G12C G25A C30U G50A C55G C62A | ≤ 0.5 |
| U3A C5U A15C A36U A40G C49G G67U | ≤ 0.5 |
| U3A C5U C31A | ≤ 0.5 |
| U3A C11G A14C C62U G67C | ≤ 0.5 |
| U3A C11G C30G A42U A43G G52C C60G | ≤ 0.5 |

| Variant | yeast fitness |
| --- | --- |
| U3A C11U U13A G17C G18C A36C A70U | ≤ 0.5 |
| U3A C11U U13C C31A U59A | ≤ 0.5 |
| U3A C27A A36G A70U | ≤ 0.5 |
| U3A C27U C31U A40U A45U C49G G63A | ≤ 0.5 |
| U3A C30G A69U | ≤ 0.5 |
| U3A C31U A57U | 0.598 |
| U3A C34U C61U G68C | ≤ 0.5 |
| U3A G6C A37U C55G U59C C60U G67U | ≤ 0.5 |
| U3A G9A A14C C55G | ≤ 0.5 |
| U3A G9A C30A A42U C49U U59C A69C | ≤ 0.5 |
| U3A G10A G25C C60A | ≤ 0.5 |
| U3A G17C A20C U28A | ≤ 0.5 |
| U3A U8A C31G A40C G58A | ≤ 0.5 |
| U3A U16G A37U C49A | ≤ 0.5 |
| U3A U19A C33U G52C A65G | ≤ 0.5 |
| U3A U19A C62U | 0.776 |
| U3C A14G G18A C30A A40G C55G U59A | ≤ 0.5 |
| U3C A14U U19C A37U C60A | ≤ 0.5 |
| U3C A21U G51C | ≤ 0.5 |
| U3C A45U C62G | ≤ 0.5 |
| U3C C4U A21G C46A | 0.628 |
| U3C C5G A20G G63C C66G | ≤ 0.5 |
| U3C C5G U19G C31A C46A | 0.663 |
| U3C C5U U7G C22U C27G A70C | ≤ 0.5 |

| Variant | yeast fitness |
| --- | --- |
| U3C C24A U26G A43C C62G G63A C66G A69G | ≤ 0.5 |
| U3C C24G C29A A43U G68C | ≤ 0.5 |
| U3C C24G G44A | ≤ 0.5 |
| U3C C30A A40U G58U | ≤ 0.5 |
| U3C G6C A14U G25A G38A | ≤ 0.5 |
| U3C G9A G48C | 0.784 |
| U3C G9C C11U C30G A43C U47A | ≤ 0.5 |
| U3C G18A C46U G50U G67A | ≤ 0.5 |
| U3C G23C C66U | ≤ 0.5 |
| U3C G39C C66U | ≤ 0.5 |
| U3C U7A A21G C30G A36G C46G A57U | ≤ 0.5 |
| U3C U8C G12A C29G C34U A36C C61A | ≤ 0.5 |
| U3C U19G A21C U32A A37U U53G U64A | ≤ 0.5 |
| U3C U32G C34U C66U | ≤ 0.5 |
| U3C U35A G48C C61U | ≤ 0.5 |
| U3G A14C C49U C55A C66U | ≤ 0.5 |
| U3G A15G C24G G63C G67A | ≤ 0.5 |
| U3G A37C A42U | ≤ 0.5 |
| U3G C4G G6C C29A A36C | ≤ 0.5 |
| U3G C4G U13C A20U C34U C62G A69U | ≤ 0.5 |
| U3G C5G U19C C66U | 0.57 |
| U3G C5U G12A | ≤ 0.5 |
| U3G C27A | 0.633 |
| U3G C31U C34A | ≤ 0.5 |

| Variant | yeast fitness |
| --- | --- |
| U3G C34G A70U | ≤ 0.5 |
| U3G C46U U59A | 0.562 |
| U3G G17A C30U A69U | ≤ 0.5 |
| U3G U7A G9A A69U | ≤ 0.5 |
| U3G U8A C31A | ≤ 0.5 |
| U3G U8A U26G G38C A40C U53C A69C A70U | ≤ 0.5 |
| U3G U8G C29G A40U C61U A69C | ≤ 0.5 |
| U3G U16C C34A | ≤ 0.5 |
| U3G U16G A21G C29A U32C C33U C34A | 0.788 |
| C4A A14G C24U U32G A42U A43G C66U | ≤ 0.5 |
| C4A A15U A42G | ≤ 0.5 |
| C4A A20C A42U | ≤ 0.5 |
| C4A A20G C29U C31A A40G | ≤ 0.5 |
| C4A A37C G41A A42C | ≤ 0.5 |
| C4A C5A C11G A15U U19C A21U | ≤ 0.5 |
| C4A C5A G12C | ≤ 0.5 |
| C4A C5G A36U G63A | ≤ 0.5 |
| C4A C5G G52C | ≤ 0.5 |
| C4A C11G A14U A42U | ≤ 0.5 |
| C4A C11U | 0.781 |
| C4A C11U A14C G41A G48C C55A A65C | ≤ 0.5 |
| C4A C24G C29G A43C U53A | ≤ 0.5 |
| C4A C24G C29G A43C U53A G67A | ≤ 0.5 |
| C4A C24U A45U G56A | ≤ 0.5 |

| Variant | yeast fitness |
| --- | --- |
| C4A C27G C29G | ≤ 0.5 |
| C4A C27U G39C | 0.632 |
| C4A C29G A40U | ≤ 0.5 |
| C4A C29U C55U G63A | ≤ 0.5 |
| C4A C30G G52A | ≤ 0.5 |
| C4A C31G G39A G51C | ≤ 0.5 |
| C4A C34A A43C C46U | ≤ 0.5 |
| C4A C34G A70G | ≤ 0.5 |
| C4A C34G G38C G68A | ≤ 0.5 |
| C4A C34G G41C C49U C62A | ≤ 0.5 |
| C4A C55G C60U G68C | ≤ 0.5 |
| C4A C55U | 0.943 |
| C4A C61U A69G | ≤ 0.5 |
| C4A G6A A40G U53G C62G C66U | 0.6 |
| C4A G12A | 0.666 |
| C4A G12A C31U U59A G63A | ≤ 0.5 |
| C4A G12C U19C C24G A43U G52A C61A | ≤ 0.5 |
| C4A G18A G25C C62U | ≤ 0.5 |
| C4A G23A C29U C34G G38C U54A A57C | 0.602 |
| C4A G23A C33G C60A A70C | ≤ 0.5 |
| C4A G23C A40C C55A A69U | ≤ 0.5 |
| C4A G44C C49U G51A G58C U59A | ≤ 0.5 |
| C4A U7C C24G C61A C66U | ≤ 0.5 |
| C4A U8C A15G U35A | ≤ 0.5 |

| Variant | yeast fitness |
| --- | --- |
| C4A U13C A20C C34A G39C A43U | ≤ 0.5 |
| C4A U13C C55G G56C | ≤ 0.5 |
| C4A U16A U32C G56C A69U | ≤ 0.5 |
| C4A U19A A40U G48C | ≤ 0.5 |
| C4A U19G U35C U53C | ≤ 0.5 |
| C4A U35C G44C A57C | ≤ 0.5 |
| C4G A14C A20C A40G G44C U53C C55A | ≤ 0.5 |
| C4G A14C C61U | ≤ 0.5 |
| C4G A14U G23A | ≤ 0.5 |
| C4G A15C | 0.719 |
| C4G A15C A57U C61G | ≤ 0.5 |
| C4G A20C C24G A37G | ≤ 0.5 |
| C4G A21C C22A C27G C34U C49U G56A G67C | ≤ 0.5 |
| C4G A21G C34U G44C C55G C61A G68U | ≤ 0.5 |
| C4G A40U A45U A65G | ≤ 0.5 |
| C4G A40U A45U U54C G63C A70U | ≤ 0.5 |
| C4G A42U C55U C62G A70C | ≤ 0.5 |
| C4G A45C G48C | ≤ 0.5 |
| C4G C5G C11A | ≤ 0.5 |
| C4G C5G G38A G63C | ≤ 0.5 |
| C4G C5U G41C A57U | ≤ 0.5 |
| C4G C11A C24A U28G U47G C49G C55G | ≤ 0.5 |
| C4G C11A C29U C33U U54C | ≤ 0.5 |
| C4G C11G C22U C55U C61A | ≤ 0.5 |

| Variant | yeast fitness |
| --- | --- |
| C4G C11G C29A A40G C62A | ≤ 0.5 |
| C4G C11G C34U G38A G44C | ≤ 0.5 |
| C4G C11G C49A | ≤ 0.5 |
| C4G C11G C55G | ≤ 0.5 |
| C4G C11G G52A | ≤ 0.5 |
| C4G C11G G58C C60A A70C | ≤ 0.5 |
| C4G C11U A14G G44C C61G | ≤ 0.5 |
| C4G C22G C62U A70C | ≤ 0.5 |
| C4G C24U G48A U64A | ≤ 0.5 |
| C4G C27G G52C C62U G67A | ≤ 0.5 |
| C4G C29G A37U | ≤ 0.5 |
| C4G C29G A57C | 0.612 |
| C4G C31U C55G G67C | ≤ 0.5 |
| C4G C34G A40G G56A | ≤ 0.5 |
| C4G G18A A40C G56C | ≤ 0.5 |
| C4G G18C A43C A57C G58A | ≤ 0.5 |
| C4G G18C A43C U53A | ≤ 0.5 |
| C4G U7A C29U | 0.504 |
| C4G U7C C27A A70U | ≤ 0.5 |
| C4G U8A G12A C31A | ≤ 0.5 |
| C4G U8C C27U C49U | ≤ 0.5 |
| C4G U8C U28G C49A C62G G68U | ≤ 0.5 |
| C4G U13A U54A | ≤ 0.5 |
